Reference: patent US9173871B2, “Oxazole and thiazole compounds as beta-catenin modulators and uses thereof” (New York University, priority 2008, dated 2015)
At least one compound was matched to its structure with a doubt left.

System: C57 mg mouse mammary epithelial cell line
Experiment: C57mg transformation assay (Wnt3a induced)
Type: cell-based
Details: 10 ng/μl, 5 days, FIG. 5
Protocol: The transformation assay was carried out in a 96 well format. C57 mg cells were cultured in DMEM/10% FBS supplemented with purified Wnt3a protein (R&D Systems) to a final concentration of […]. Small molecule compounds dissolved in DMSO were added to a final concentration of 10 ng/μl and 0.01% DMSO. Following incubation at 37° C. for 5 days, cells were fixed with 4% Formaldehyde in 1×PBS at RT for 30 min and washed subsequently with 1×PBS at room temperature (RT) for 5 minutes (×3). […]
The present inventors have established a phenotypic assay using the Wnt-responsive C57 mg mouse mammary epithelial cell line to ascertain the validity of the inhibitory compounds identified in the primary screen. […] The Array-Scan imagining system (Cellomics Inc.) is used to image such phenotypic changes in a 96-well plate format so as to gain a quantitative estimate of the degree of the inhibitory effect of the compounds on Wnt3a induced transformation in C57 mg cells. Quantitative analysis of the transformation phenotype is measured by the degree of actin fiber alignment (defined as anisotropy), which is expressed as the standard deviation (SD) of the angles projected by the actin fibers relative to the normal; low SD numbers reflect an increase in Wnt-responsive transformation. […]

COc1cccc(/C=C2\SC(=S)N(CCCC(=O)O)C2=O)c1OC [IIa-143]
inhibition of Wnt3a induced C57 mg transformation: partial reduction
